The text below walks through data of PMC10114474.

Results are given in words; binding and its absence hold for the method and conditions named. In cells and extracts the contact can be indirect. Some results given as binding are weak or reduced against the parent protein; the word gives no strength.

The test concerns the target T1, carbohydrate sulfotransferase 11 (CHST11) (human (endogenous in OCI-LY1 and U2932)) (UniProt Q9NPF2).
T1 sequence: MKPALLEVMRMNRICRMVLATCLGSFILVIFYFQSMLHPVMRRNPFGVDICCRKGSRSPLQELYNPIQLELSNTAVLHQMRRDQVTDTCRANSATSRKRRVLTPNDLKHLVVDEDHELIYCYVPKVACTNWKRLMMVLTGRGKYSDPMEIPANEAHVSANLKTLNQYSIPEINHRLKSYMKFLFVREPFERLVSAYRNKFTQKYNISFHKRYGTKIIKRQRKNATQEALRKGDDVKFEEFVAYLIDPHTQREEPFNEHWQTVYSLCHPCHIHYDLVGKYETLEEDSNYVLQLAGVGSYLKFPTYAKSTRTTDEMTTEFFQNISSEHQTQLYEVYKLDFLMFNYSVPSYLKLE
The test can be described thus: co-IP; endogenous proteins; DLBCL cells (OCI-LY1, U2932) lysed in RIPA buffer with protease inhibitors; lysate incubated overnight with 2 µg antibody, normal IgG as negative control; Protein A/G Plus-agarose beads 4 h at 4 °C; western blotting. A general note: In western blotting, separated proteins are transferred to a membrane and probed.

B1: MOB1B (protein, UniProt Q7L9L4 1-216)
chain: MSFLFGSRSSKTFKPKKNIPEGSHQYELLKHAEATLGSGNLRMAVMLPEGEDLNEWVAVNTVDFFNQINMLYGTITDFCTEESCPVMSAGPKYEYHWADGTNIKKPIKCSAPKYIDYLMTWVQDQLDDETLFPSKIGVPFPKNFMSVAKTILKRLFRVYAHIYHQHFDPVIQLQEEAHLNTSFKHFIFFVQEFNLIDRRELAPLQELIEKLTSKDR
In the case of B1, the binding entry is “binds”.
